Assay results published in PMC5893553.
No constants are given. Whether binding was seen depends on the method and setting. In cells and extracts the contact can be indirect. Some results given as binding are weak or reduced against the parent protein; the word gives no strength. Tags and fused reporters may be left off the sequences shown.

By UniProt entry, the sequences of proteins in these tests, tags left out.
UniProt P51608: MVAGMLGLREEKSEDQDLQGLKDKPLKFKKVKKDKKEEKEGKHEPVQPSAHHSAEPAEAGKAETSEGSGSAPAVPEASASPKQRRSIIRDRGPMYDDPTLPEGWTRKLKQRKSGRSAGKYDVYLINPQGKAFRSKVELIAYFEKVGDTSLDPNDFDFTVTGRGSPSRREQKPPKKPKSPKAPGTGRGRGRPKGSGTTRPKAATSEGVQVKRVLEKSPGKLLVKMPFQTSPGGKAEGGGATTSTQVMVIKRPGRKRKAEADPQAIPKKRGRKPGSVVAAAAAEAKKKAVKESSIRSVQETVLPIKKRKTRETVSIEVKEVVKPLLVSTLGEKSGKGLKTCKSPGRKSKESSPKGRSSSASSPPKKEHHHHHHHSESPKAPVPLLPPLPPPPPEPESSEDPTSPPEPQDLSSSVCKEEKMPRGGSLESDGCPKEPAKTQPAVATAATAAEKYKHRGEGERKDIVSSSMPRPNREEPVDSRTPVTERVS

Target: FLAG-tagged human MeCP2 (pFLAG-human MeCP2) (human) (UniProt P51608)
Experiment: co-IP; lysate of co-transfected SKN-SH cells (500 μg/500 μL, FLAG buffer) rotated overnight (16 h) at 4 °C with anti-FLAG beads; Western blot for Deaf1

B1: His-tagged human Deaf1 (pcDNA3-His-human Deaf1) (protein, UniProt O75398 1-565)
chain: MEDSDSAAKQLGLAEAAAVAAAAAVAAAAAAAAGGEAEEPVLSRDEDSEEDADSEAERETPRVTAVAVMAAEPGHMDMGAEALPGPDEAAAAAAFAEVTTVTVANVGAAADNVFTTSVANAASISGHVLSGRTALQIGDSLNTEKATLIVVHTDGSIVETTGLKGPAAPLTPGPQSPPTPLAPGQEKGGTKYNWDPSVYDSELPVRCRNISGTLYKNRLGSGGRGRCIKQGENWYSPTEFEAMAGRASSKDWKRSIRYAGRPLQCLIQDGILNPHAASCTCAACCDDMTLSGPVRLFVPYKRRKKENELPTTPVKKDSPKNITLLPATAATTFTVTPSGQITTSGALTFDRASTVEATAVISESPAQGDVFAGATVQEASVQPPCRASHPEPHYPGYQDSCQIAPFPEAALPTSHPKIVLTSLPALAVPPPTPTKAAPPALVNGLELSEPRSWLYLEEMVNSLLNTAQQLKTLFEQAKHASTYREAATNQAKIHADAERKEQSCVNCGREAMSECTGCHKVNYCSTFCQRKDWKDHQHICGQSAAVTVQADEVHVAESVMEKVTV
  binding: binds
